# The list is a part of this screen's results and no random one: it gathers tests that were run many times, whatever their T/C, doses with no T/C, and many T/C values between a quarter and a half above the control. Other doses and runs of a compound stand elsewhere. T/C: endpoint of the treated group in % of that of the vehicle group. Some entries give survivors of the animals treated and no T/C: the source holds a T/C of zero for them, seemingly a mark for toxic or unscored doses. Some doses without a T/C left all or most animals alive at the check, yet need not have been tolerated: survival well below the control is almost never listed, so the zero probably covers shortened survival too. Survivors were counted at the toxicity check, usually on the fifth day, unless a day is given; later deaths do not show. Schedules are NCI's codes, read here as Q, the interval in days (D) or hours (H), X, the number of doses. Some schedules carry Z or #; the key to these is not given. For survival time, this PubChem deposit counts one and a half times the control or more as active, and values a quarter to a half above the control carry no call in these data; other NCI protocols may use other cut-offs. Some entries were tested several times; their values stand side by side, smallest first.
# Test system: BDF1 mice, L1210 Methyl-GAG-resistant leukemia, survival T/C
# Test: NCI In Vivo Anticancer Drug Screen. Data for tumor model L1210 Leukemia resistant to Methyl-GAG; NSC 32946 (subcutaneous) in B6D2F1 (BDF1) mice
# Details: T/C endpoint: mean survival time, schedule: Q01DX Z (ip), higher T/C = longer survival
# Description: The antitumor activity of compounds was measured in mice bearing transplantable tumors. Survival or tumor size were measured and the results are expressed as the measurement made in the treated group (T) divided by the measurement made in the vehicle treated control group (C). The tumor model used in this assay is L1210 Leukemia resistant to Methyl-GAG; NSC 32946 (subcutaneous) in B6D2F1 (BDF1) mice
# [1] = dose: 120.0 mg/kg/injection, vehicle: carboxymethylcellulose (CMC)
# [2] = dose: 2.5 mg/kg/injection, vehicle: other
# [3] = dose: 62.5 mg/kg/injection, vehicle: carboxymethylcellulose (CMC)
# [4] = dose: 250.0 mg/kg/injection, vehicle: carboxymethylcellulose (CMC)
smiles,measurement,setting,value
C1CN1c1nc(N2CC2)nc(N2CC2)n1,T/C,"dose: 1.0 mg/kg/injection, vehicle: saline",133 % of control
same,survivor count,"dose: 2.0 mg/kg/injection, vehicle: saline",6 of 6
same,survivor count,"dose: 4.0 mg/kg/injection, vehicle: saline",6 of 6
same,survivor count,"dose: 8.0 mg/kg/injection, vehicle: saline",6 of 6
Nc1nc2n[nH]nc2c(=O)[nH]1,T/C,"dose: 50.0 mg/kg/injection, vehicle: other",136 and 143 % of control
[I][Hg][CH2]C1COC([CH2][Hg][I])CO1 (centres undefined),survivor count,[1],0 of 6
CCN(CC)C(=S)S,survivor count,"dose: 2000.0 mg/kg/injection, vehicle: other",1 of 6
O=P1(N(CCCl)CCCl)NCCCO1 (centres undefined),T/C,"dose: 6.25 mg/kg/injection, vehicle: saline",146 % of control
c1ccc(CNc2ncnc3[nH]ncc23)cc1,survivor count,"dose: 64.0 mg/kg/injection, vehicle: carboxymethylcellulose (CMC)",0 of 6
same,survivor count,"dose: 128.0 mg/kg/injection, vehicle: carboxymethylcellulose (CMC)",0 of 6
CN(Cc1cnc2nc(N)nc(N)c2n1)c1ccc(C(=O)N[C@@H](CCC(=O)O)C(=O)O)cc1,T/C,[2],140 % of control
same,survivor count,[2],6 of 6
same,survivor count,"dose: 5.0 mg/kg/injection, vehicle: other",6 of 6
same,survivor count,"dose: 7.0 mg/kg/injection, vehicle: other",6 of 6
same,survivor count,"dose: 10.0 mg/kg/injection, vehicle: other",6 of 6
CCCCNc1ncnc2c1cnn2C,T/C,"dose: 16.0 mg/kg/injection, vehicle: carboxymethylcellulose (CMC)",128 % of control
same,T/C,[3],126 % of control
same,survivor count,"dose: 125.0 mg/kg/injection, vehicle: carboxymethylcellulose (CMC)",6 of 6
same,survivor count,[4],0 of 6
O=c1[nH]c(=O)n(C2CC(O)C(CO)O2)cc1Br (centres undefined),T/C,[4],130 % of control
O=C(Nc1ccc(C2=NCCCN2)cc1)c1ccc(NC(=O)c2ccc(C3=NCCCN3)cc2)cc1,T/C,"dose: 7.8 mg/kg/injection, vehicle: carboxymethylcellulose (CMC)",132 and 144 % of control
same,survivor count,"dose: 31.3 mg/kg/injection, vehicle: carboxymethylcellulose (CMC)",5 of 6
same,survivor count,[3],0 of 6
Cc1cc(N(CCCl)CCCl)ccc1N=Nc1ccccc1C(=O)O,survivor count,"dose: 7.5 mg/kg/injection, vehicle: carboxymethylcellulose (CMC)",6 of 6
same,survivor count,"dose: 60.0 mg/kg/injection, vehicle: carboxymethylcellulose (CMC)",5 of 6
same,survivor count,[1],6 of 6
same,survivor count,"dose: 240.0 mg/kg/injection, vehicle: carboxymethylcellulose (CMC)",3 of 6
CC(CCC(C)OS(C)(=O)=O)OS(C)(=O)=O (centres undefined),survivor count,"dose: 40.0 mg/kg/injection, vehicle: carboxymethylcellulose (CMC)",4 of 6
O=C(Nc1ccc(C2=NCCN2)cc1)c1ccc(C(=O)Nc2ccc(C3=NCCN3)cc2)cc1,survivor count,"dose: 800.0 mg/kg/injection, vehicle: carboxymethylcellulose (CMC)",2 of 6
